# Measured values reported in PMC7819943, “Rice protein-binding microarrays: a tool to detect cis-acting elements near promoter regions in rice”.
# Some of the results follow.
# Target: T1, OsSMF1 (Oryza sativa, UniProt Q6ZLB0 1-436)
# T1 sequence: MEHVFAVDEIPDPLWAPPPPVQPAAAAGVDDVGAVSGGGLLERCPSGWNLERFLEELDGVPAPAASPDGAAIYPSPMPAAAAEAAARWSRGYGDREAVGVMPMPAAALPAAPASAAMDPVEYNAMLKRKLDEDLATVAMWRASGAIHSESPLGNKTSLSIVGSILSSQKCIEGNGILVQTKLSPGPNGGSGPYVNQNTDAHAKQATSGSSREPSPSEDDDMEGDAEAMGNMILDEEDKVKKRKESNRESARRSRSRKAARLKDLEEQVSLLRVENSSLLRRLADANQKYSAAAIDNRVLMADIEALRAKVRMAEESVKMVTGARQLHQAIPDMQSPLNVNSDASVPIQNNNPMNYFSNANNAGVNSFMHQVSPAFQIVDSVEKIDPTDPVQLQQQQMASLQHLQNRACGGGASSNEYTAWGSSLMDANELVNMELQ
# Experiment: protein-binding microarray (RPBM); PBS, 2% BSA, 51.3 ng/ul salmon testes DNA, 50 uM zinc acetate, 200 nM TF, 25 C, 1 h; high values mean tight binding
# Settings: protein: recombinant; tags: N-terminal polyhistidine and DsRed monomer fusion (pET32a); chain copies: 2; label: CyDye5-dUTP incorporated in the synthesized complementary strand; 3' TTTTT single-stranded linker to array surface; dsDNA, one strand shown
# Summary of the method: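 Transcription factors were each fused at the N-terminus to a polyhistidine tag plus DsRed and expressed in E. coli BL21-CodonPlus before Ni–NTA purification. Binding to a double-stranded custom Agilent array was carried out with 200 nM protein at 25 °C for 1 h in PBS, 2% BSA, salmon testes DNA and 50 µM zinc acetate. The binding signal is per-feature fluorescence intensity, in arbitrary units, on an Axon 4000B scanner.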
row,Sequence,binding signal
1,TTCCGACCGAAACCGTACGTGGCGTTCACTTCACCGTGGGCGGAGTCACCTAGTGCAG,6200 fluorescence intensity (a.u.)
2,ATCCTGTCACGGTCAGCCACGTCGCGGAGGGCAGTGCGACCGGAGTCACCTAGTGCAG,4580 fluorescence intensity (a.u.)
3,CCCTCTCCTCACGTGTTGCTAGCGCCGATGTCACCTCTCGCGGAGTCACCTAGTGCAG,4640 fluorescence intensity (a.u.)
4,GTTGCCAAAAGTACACATGTCACGCAAGCACGCGACTCACCGGAGTCACCTAGTGCAG,4670 fluorescence intensity (a.u.)
5,CCGAGACCAAGCTATCTTCAACTTGACTCATTAATAGCAACGGAGTCACCTAGTGCAG,4360 fluorescence intensity (a.u.)
6,AACTCCTCCTTGAAGGGCCTGGGCTTCATCTCTATCTCTACGGAGTCACCTAGTGCAG,4180 fluorescence intensity (a.u.)
7,ACATGCCCATGCGCGACACGTGCACCTCCTCATCCAAACTCGGAGTCACCTAGTGCAG,5600 fluorescence intensity (a.u.)
8,TATTGATCGCGTCAGCTTCCACTTGCGTTGTTCTTTGCGGCGGAGTCACCTAGTGCAG,7120 fluorescence intensity (a.u.)
9,ACAGAAGTCCAAGATACACAGTGCTACTAGAAAGCCGTATCGGAGTCACCTAGTGCAG,3260 fluorescence intensity (a.u.)
10,ATTGCCAGGTGCCCGGTACTCCGGTAGGGTCAGGGCGGATCGGAGTCACCTAGTGCAG,3430 fluorescence intensity (a.u.)
11,TCTTAGTATGAGCTTGGTTCGTGGCTTTAGGCTGCCTACCCGGAGTCACCTAGTGCAG,6700 fluorescence intensity (a.u.)
12,TTCCCTCCCTACTGTCTCTGGTTCTCTGCTCCTCCACTTCCGGAGTCACCTAGTGCAG,25000 fluorescence intensity (a.u.)
13,GGTCCCCTCCACTCTCCATGTCATCGGCTGACACATAGGGCGGAGTCACCTAGTGCAG,5100 fluorescence intensity (a.u.)
14,CCTGGCCGGCTGCTGACCAGGCAATCCGTGTCGTAGTGGTCGGAGTCACCTAGTGCAG,7050 fluorescence intensity (a.u.)
15,GACTAGTCATAATATCTTATGACTCATTCTTATGGTATATCGGAGTCACCTAGTGCAG,8510 fluorescence intensity (a.u.)
16,CCTGTTGAGGTTGTCAGCAAGGCAGGGACTATTGTCGCCGCGGAGTCACCTAGTGCAG,4090 fluorescence intensity (a.u.)
17,TACTAAGCACAATATACAAGTGTGTCACATCATCACCCACCGGAGTCACCTAGTGCAG,3620 fluorescence intensity (a.u.)
18,GTAGGCGCCACGTGGCGCCACGTCAGCAAAACCGCCTCCTCGGAGTCACCTAGTGCAG,24000 fluorescence intensity (a.u.)
19,CGTCTCCTGCTCGAGTCATCGTCCCCACTGCGTGCACAAGCGGAGTCACCTAGTGCAG,4000 fluorescence intensity (a.u.)
20,AATTTTGACATGCCTAAGAAAATAGGCCATTTCAACCGTTCGGAGTCACCTAGTGCAG,18600 fluorescence intensity (a.u.)
21,TAAATATGCAGTGTCCCTCTGATGACTAATGCAAATCAGTCGGAGTCACCTAGTGCAG,3940 fluorescence intensity (a.u.)

# Reformatted as tab-separated lines: part of the list above
row	Sequence	binding signal
14	CCTGGCCGGCTGCTGACCAGGCAATCCGTGTCGTAGTGGTCGGAGTCACCTAGTGCAG	7050 fluorescence intensity (a.u.)
15	GACTAGTCATAATATCTTATGACTCATTCTTATGGTATATCGGAGTCACCTAGTGCAG	8510 fluorescence intensity (a.u.)
16	CCTGTTGAGGTTGTCAGCAAGGCAGGGACTATTGTCGCCGCGGAGTCACCTAGTGCAG	4090 fluorescence intensity (a.u.)

# Next part:

row,Sequence,binding signal
1,TTCGTTTCTTATGTAACACGTGGATGAAAATTTAGATTTTCGGAGTCACCTAGTGCAG,8280 fluorescence intensity (a.u.)
2,GCAACGGAAGAGATGAGGAGATGACTCGGATGAGCGGAAGCGGAGTCACCTAGTGCAG,3180 fluorescence intensity (a.u.)
3,ATTAAGCATGCTCATGTTATACACATCTAGCGCTGTTACTCGGAGTCACCTAGTGCAG,3170 fluorescence intensity (a.u.)
4,AGAAGCGAACGTGGCAACCTTCCCTGGGCCCCACCCCTCCCGGAGTCACCTAGTGCAG,9260 fluorescence intensity (a.u.)
5,GGAGTATGACAGGTGGGGCCGCGTCAGGGGTATTTTGGTCCGGAGTCACCTAGTGCAG,4750 fluorescence intensity (a.u.)
6,ATGGTGAACACGACTGGATGAGTGGGTCAAACATGTTCCCCGGAGTCACCTAGTGCAG,3180 fluorescence intensity (a.u.)
7,AACGAGCCGAACCGAGCCGAGCTTGGTCACGAGCAGAGCTCGGAGTCACCTAGTGCAG,3170 fluorescence intensity (a.u.)
8,CCCTATTTATACAGCTCAGCACCCTCACTCCCACTCACAACGGAGTCACCTAGTGCAG,6570 fluorescence intensity (a.u.)
9,GTAGGGGTAGGGGTGGCGTGGCGTGTGCCAATGACCTAACCGGAGTCACCTAGTGCAG,5320 fluorescence intensity (a.u.)
10,AGCCAGGAACCTGCCAGCGTGTGCACTCCACGAACAGGGCCGGAGTCACCTAGTGCAG,4310 fluorescence intensity (a.u.)
11,TTCCGATCCGAGGTCAAATTGGGAGTGCTACGCGGGAAAGCGGAGTCACCTAGTGCAG,38200 fluorescence intensity (a.u.)
12,TAAAATTTATTACTACTCGCGGCCACGTAGATGCAACGCGCGGAGTCACCTAGTGCAG,8070 fluorescence intensity (a.u.)
13,AGGCCGCCGACGAGCTTGAGGATGACCTCGCCGTCCTCCTCGGAGTCACCTAGTGCAG,3320 fluorescence intensity (a.u.)
14,TCATCTGTATGATATATAGTACTACATCTTTTGACATTTTCGGAGTCACCTAGTGCAG,3690 fluorescence intensity (a.u.)
15,CGCGTCGCTCACGGGGCTGCACCTCCAGCTCAACGCCTTCCGGAGTCACCTAGTGCAG,4420 fluorescence intensity (a.u.)
16,TTTCTGTATCTTTGACATCGGCGCTCCTAATATGTCACCGCGGAGTCACCTAGTGCAG,4180 fluorescence intensity (a.u.)
17,TCGTCGTCCACCAAGAGGCTGGTTCGTCCTCACCATCTCGCGGAGTCACCTAGTGCAG,6020 fluorescence intensity (a.u.)
18,GAACATTTGAGTCATCTACTATCTTGCAATATCACTCTTCCGGAGTCACCTAGTGCAG,6570 fluorescence intensity (a.u.)
19,ACTAGCTGGACGGTCAATCCACGTGGTTTGTTCATTGCCTCGGAGTCACCTAGTGCAG,9780 fluorescence intensity (a.u.)
20,GCCGCACACCAACTGACGTGTGGGGCCTCCAAACCGCAAGCGGAGTCACCTAGTGCAG,5240 fluorescence intensity (a.u.)
21,TCTATCAACCCGTCACCCTATCACACGTCATCGACAAAGGCGGAGTCACCTAGTGCAG,23800 fluorescence intensity (a.u.)
